Primary screen of a compound library

Measurements from “University of Dundee, Small-Polar-MMV Screening Library” (2021), ChEMBL document CHEMBL3988442.

Each number is a percent effect as filed. The record does not define 0% and 100%; most values in the screen are far below 50% and negative numbers occur (in some assays of this library far below -100). The compounds are a random part of those screened.

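Whole-parasite assay of Trypanosoma brucei over 72 hours; the read-out is not stated. Compounds at 30 µM. Higher reads as stronger inhibition (inferred: compounds with an IC50 in retests scored well above the rest). Values scatter widely below zero; nearly all retest evidence comes from the higher of the two concentrations used. Of about 64,000 compounds tested this way, about 940 (1.5%) reached 50% or more in at least one test.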

SMILES	Percent Effect
Cn1cnc(S(=O)(=O)N2CC3(CCN(Cc4ccncc4)C3)C2)c1.O=C(O)C(F)(F)F.O=C(O)C(F)(F)F.O=C(O)C(F)(F)F	-16.6
CC(Cn1ccnc1)NC(=O)NCCNC(=O)C(C)C (stereo unspecified)	-34.35
O=C(c1ccc(NCc2cccc(F)c2)cc1)N1CCCC1	-31.9
CCc1nc2n(n1)CC(NCC(=O)Nc1nccs1)CC2 (stereo unspecified)	-57.86
CCN(C(=O)CNc1cc(C)c(F)cc1C(N)=O)C1CC1	-12.84
CCC1CN(C)c2ccccc2CN1C(=O)Nc1cccc(F)c1 (stereo unspecified)	25.77
Cc1nn(C)c(C)c1S(=O)(=O)NCC1(C(N)=O)CCOCC1	-4.997
CCn1ccnc1CN(C)Cc1nc(Cc2ccccc2Cl)no1	-65.04
CCC(CN1CCCCC1)NC(=O)C1(c2ccc(F)cc2)CC1.O=C(O)CC(O)(CC(=O)O)C(=O)O (stereo unspecified)	15.39
Cc1ccc(CN2CCC3(CC2)CC(NC(=O)c2ccccn2)CO3)o1 (stereo unspecified)	-55.04
COc1ncccc1CNC(=O)NC1CCOc2ccccc21 (stereo unspecified)	23.24
CC1CCN(S(=O)(=O)c2ccc(C(=O)N3CCSCC3)cc2)CC1	-6.567
Cc1ccnc(NC(=O)c2ccc(Br)o2)c1	-3.958
CCN(C(=O)C1CCC1)C(c1cccnc1)c1ccc2c(c1)CCO2 (stereo unspecified)	-48.93
COCCCC(=O)N1CCC(Nc2cccnn2)CC1	-1.659
Cc1cc2cc(C(=O)N[C@@H]3CC[C@@H](N4CCOCC4)[C@@H]3O)ccc2o1	-19.45
Cc1cc(NC(=O)CNC2CCc3nc(C(C)C)nn3C2)no1 (stereo unspecified)	-9.822
COc1cccc(Cn2ncnc2CCC(C)N2CCN(C)CC2)c1 (stereo unspecified)	-92.21
CC(=O)NCCC1CCCCN1S(=O)(=O)c1cccc(Cl)c1 (stereo unspecified)	-42.06
Cc1sc(CN)nc1-c1ccc(Cl)cc1Cl	-10.83
CC(CCSc1ccccc1)N1CCCN(C(N)=O)CC1 (stereo unspecified)	-77.25
CC(C)c1nc(CSc2nnc(C3CC3)n2CC(N)=O)no1	-15.45
Cc1nn(C)c(C)c1C1CCCN1C(=O)c1ccc(C(N)=O)s1 (stereo unspecified)	-64.03
COc1ccc(-c2n[nH]c(C)c2CC(=O)NCC2CCCO2)cc1 (stereo unspecified)	-31.7
Fc1cccc(Cl)c1CN1CCC(c2n[nH]c3ncccc23)CC1	-11.54
O=C(NCc1ccccn1)Nc1ccc2[nH]nnc2c1	-31.1
Cc1ccc(-c2nc(CC(=O)N3CCN(c4cnccn4)CC3)cs2)o1	1.008
CC(C)(C)c1cnc(CN2CCC(NC(=O)CC3CCCC3)CC2)o1	0.4869
Cn1c(C2CCCCN2C(=O)CN2CCCC2=O)nc2ccccc21 (stereo unspecified)	-59.8
COCCOCC(=O)NCCCOC1CCCc2ccccc21 (stereo unspecified)	-35.04
O=C(O)C(F)(F)F.[H][C@@]12CCN(c3cccnc3)C[C@]1([H])CN(C(=O)c1ccco1)C2	1.852
CC(=O)N[C@H]1CCO[C@@H](c2cccc(NC(=O)c3cccc(F)c3)c2)C1	-19.86
CS(=O)(=O)N1CC[C@]2(C[C@@H](OCC3CCC3)CO2)C1	-70.59
NC(=O)NC(=O)CCN1CCN(c2nccs2)CC1	-4.939
CN1CCCc2cc(-c3cncn3CC(=O)NC(C)(C)C)ccc21.Cl	-19.44
CCNC(=O)NC(=O)C(C)Nc1ccccc1OCCOC (stereo unspecified)	5.832
O=C(O)C(F)(F)F.[H][C@@]12CCN(Cc3cnn(C)c3)[C@@]1([H])CCN2C(=O)c1cccc(F)c1	-26.7
Cn1ccc(C(=O)N2CCC(Cc3cccc4ncccc34)CC2)n1	14.61
COCCN(Cc1ccsc1)C(=O)c1c(C)cc(C)[nH]c1=O	-48.96
Cc1nc(COc2ccc(N(C)S(C)(=O)=O)cc2)sc1C	-15.78
CCn1c(CC2CCN(C(=O)C3CC(C(C)C)=NO3)CC2)nn(C)c1=O (stereo unspecified)	2.405
COc1ccc([C@@H]2C[C@H](NC(C)=O)C[C@H](CCc3ccccc3)O2)cn1	-1.895
Cn1cc2ncn(CCNc3cccnc3)c(=O)c2n1	-4.383
CCC(C)NC(=O)c1ccc(CNC(=O)CCC(C)C)cc1 (stereo unspecified)	-59.19
CCC(Nc1nnnn1-c1ccccc1)C(=O)NCc1ccsc1 (stereo unspecified)	8.833
CC(C)n1nc(CN2CCCC2=O)c2c1CN(C(=O)c1ccno1)C2	-54.82
COc1cccc(-c2n[nH]cc2CNC2CCN(C3CC3)CC2)c1.Cl	-53.74
CCc1nc(CC(=O)N2CCC(C(=O)N3CCCC3)CC2)cs1	-27.69
CN(Cc1cnn(C)c1)C(=O)NC1CCN(Cc2ccccn2)CC1	6.861
CN(C)S(=O)(=O)N1CC[C@]2(C[C@@H](OCC3CC3)CO2)C1	-7.449
Cc1cnc(N2CC3(CCN(Cc4cccnc4)C3)C2)nc1.O=C(O)C(F)(F)F.O=C(O)C(F)(F)F	-6.103
CN1CCN(Cc2c[nH]cn2)CC12CCC(=O)N(CC1CC1)CC2 (stereo unspecified)	-32.78
O=C(CSc1ccc(F)cc1)NS(=O)(=O)c1ccc2c(c1)OCCO2	11.75
CCc1c(C)nn(CCNC(=O)c2csc(C)n2)c1C	-5.23
CCc1cnc(N2CCCOC(CN3CCCC3)C2)nc1 (stereo unspecified)	-16.18
COCCN(Cc1ccoc1)C(=O)c1ccccc1Cl	-34.68
Cc1ccc(CN2CCOC3(COCCN(CCN(C)C)C3)C2)o1.O=C(O)C(F)(F)F.O=C(O)C(F)(F)F.O=C(O)C(F)(F)F (stereo unspecified)	20.44
CN(C)CC(=O)N1CCC2(CC1)COC(COc1ccccn1)C2.O=C(O)C(F)(F)F.O=C(O)C(F)(F)F (stereo unspecified)	0.4599
Cc1ccc2nc(C)c(C)c(C(=O)N3CCC4(CCO4)CC3)c2c1	-3.813
CN1CCC(Cc2cc(N(C)C)ncn2)C1 (stereo unspecified)	-16.77
CN(C)Cc1cccc(-c2cccnc2C(=O)NCc2ccco2)c1	-2.635
O=C(NCc1cccnc1-n1cncn1)c1ccncc1	-1.045
Cc1cccc(C(=O)NC(C(=O)NCc2ccc(O)nc2)C(C)C)c1 (stereo unspecified)	-26.41
CN(C)c1cc2c(nn1)CCN(C(=O)Cc1noc3ccccc13)C2	-23.1
Cc1nn(C)c2nc(N(C)CCN(C)C)sc12	-27.21
COCCN(C)C(C)Cc1ccccc1OC (stereo unspecified)	-28.52
O=C(O)C(F)(F)F.[H][C@@]12CCN(c3nncs3)[C@@]1([H])CCN2C(=O)NC1CC1	-62.47
COc1ccc(NC(=O)Nc2c(O)c3ccccc3oc2=O)cc1	-13.06
Cc1cnn(CC2CCCN2CC(=O)NC2CCOCC2)c1 (stereo unspecified)	1.778
Cc1cc(=O)[nH]c(-c2cccc(CN3CCCN4CCCC4C3)c2)n1 (stereo unspecified)	-42.57
Cc1cnc(NCCCN2CCCCC2CO)nc1 (stereo unspecified)	-17.59
Cl.O=C(O)C1(Cc2cccc(-c3cccs3)c2)CCCNC1 (stereo unspecified)	-23.63
COc1ccc(C(=O)NCCNC(=O)c2scnc2Cl)cc1	12.93
CCOc1cccc(C2CC(=O)NCc3nc(N(C)C)sc32)c1 (stereo unspecified)	-10.33
Cn1cc(-c2cccc(CNC(=O)N3CCC[C@@H]3CO)c2)cn1	-11.94
CC(=O)NC1CCN(c2cc(-c3ccccc3)nc3c(C)c(C)nn23)C1 (stereo unspecified)	-42.36
Cc1cccc2nc(CN3CCCC3Cn3cccn3)cn12 (stereo unspecified)	-4.541
Cc1nc(C)n(CC2CCCN2Cc2cn3c(C)cccc3n2)n1 (stereo unspecified)	32.47
O=S(=O)(NCC1CCN(c2ccccn2)CC1)c1ccccc1F	16.14

The last 10 entries again:

| SMILES | Percent Effect |
|---|---|
| `Cc1cc(=O)[nH]c(-c2cccc(CN3CCCN4CCCC4C3)c2)n1` (stereo unspecified) | -42.57 |
| `Cc1cnc(NCCCN2CCCCC2CO)nc1` (stereo unspecified) | -17.59 |
| `Cl.O=C(O)C1(Cc2cccc(-c3cccs3)c2)CCCNC1` (stereo unspecified) | -23.63 |
| `COc1ccc(C(=O)NCCNC(=O)c2scnc2Cl)cc1` | 12.93 |
| `CCOc1cccc(C2CC(=O)NCc3nc(N(C)C)sc32)c1` (stereo unspecified) | -10.33 |
| `Cn1cc(-c2cccc(CNC(=O)N3CCC[C@@H]3CO)c2)cn1` | -11.94 |
| `CC(=O)NC1CCN(c2cc(-c3ccccc3)nc3c(C)c(C)nn23)C1` (stereo unspecified) | -42.36 |
| `Cc1cccc2nc(CN3CCCC3Cn3cccn3)cn12` (stereo unspecified) | -4.541 |
| `Cc1nc(C)n(CC2CCCN2Cc2cn3c(C)cccc3n2)n1` (stereo unspecified) | 32.47 |
| `O=S(=O)(NCC1CCN(c2ccccn2)CC1)c1ccccc1F` | 16.14 |